{"sequences": {"note": "Sequences of proteins named here, by UniProt entry; tags and fusion partners are left off.", "UniProt Q93009": "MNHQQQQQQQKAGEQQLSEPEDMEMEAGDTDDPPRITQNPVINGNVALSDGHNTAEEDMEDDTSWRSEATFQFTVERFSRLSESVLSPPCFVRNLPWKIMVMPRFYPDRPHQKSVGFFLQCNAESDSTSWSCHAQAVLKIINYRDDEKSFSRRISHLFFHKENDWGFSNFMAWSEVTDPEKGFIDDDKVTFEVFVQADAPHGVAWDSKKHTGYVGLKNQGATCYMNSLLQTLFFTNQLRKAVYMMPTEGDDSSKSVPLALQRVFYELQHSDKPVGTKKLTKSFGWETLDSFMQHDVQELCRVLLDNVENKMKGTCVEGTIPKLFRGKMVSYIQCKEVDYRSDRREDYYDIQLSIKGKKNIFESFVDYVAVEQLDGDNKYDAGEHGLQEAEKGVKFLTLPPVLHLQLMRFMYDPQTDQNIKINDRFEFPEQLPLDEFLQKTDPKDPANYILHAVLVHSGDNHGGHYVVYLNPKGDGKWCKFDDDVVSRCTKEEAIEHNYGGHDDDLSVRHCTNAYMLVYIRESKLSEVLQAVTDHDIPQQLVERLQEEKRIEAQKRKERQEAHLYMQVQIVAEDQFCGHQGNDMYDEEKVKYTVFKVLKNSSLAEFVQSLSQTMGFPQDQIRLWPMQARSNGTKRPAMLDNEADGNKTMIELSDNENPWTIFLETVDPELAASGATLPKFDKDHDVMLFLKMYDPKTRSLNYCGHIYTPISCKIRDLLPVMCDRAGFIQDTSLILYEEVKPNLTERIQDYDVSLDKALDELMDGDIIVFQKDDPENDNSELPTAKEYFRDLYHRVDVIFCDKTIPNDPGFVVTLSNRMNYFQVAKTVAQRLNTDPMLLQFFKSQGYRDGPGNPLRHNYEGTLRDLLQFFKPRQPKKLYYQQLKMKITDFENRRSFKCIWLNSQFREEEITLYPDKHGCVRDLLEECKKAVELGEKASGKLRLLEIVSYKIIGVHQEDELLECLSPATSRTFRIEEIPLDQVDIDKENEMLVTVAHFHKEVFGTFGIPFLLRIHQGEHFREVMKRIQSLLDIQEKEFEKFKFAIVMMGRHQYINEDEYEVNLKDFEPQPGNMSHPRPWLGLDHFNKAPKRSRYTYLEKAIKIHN"}, "source": "paper PMC6858727", "biological_target": "Flag-tagged PLK1 (full length) (UniProt P53350)", "experiment": "affinity purification with mass spectrometry; tandem affinity purification with an anti-Flag antibody from HEK293T cells stably expressing Flag-tagged PLK1, then mass spectrometry", "note": "No constants are given. Whether binding was seen depends on the method and setting. Binding seen in cells or lysates may run through a third protein. These calls come from enrichment with a bait or labelling near it, and not all partners need be listed.", "data": [{"substance": "Ubiquitin specific protease 7 (USP7), endogenous in HEK293T cells (from UniProt Q93009 1-1102) (enzyme)", "values": [{"measurement": "binding", "result": "binds"}]}]}
